The other results are listed elsewhere or left out.
Assays:
Assay in all cases: log2 fold change, soluble protein after heating vs DMSO (PISA); higher = thermal stabilisation; K562 cells, 10 uM, 30 min; active = over 0.2 and 3.5 SD of the protein, either way, in both replicates (recomputed)
[1] = compound: CC1=C(C=C(C=C1)NC(=O)C2=CC(=CC=C2)C(C)(C)C#N)NC3=CC4=C(C=C3)N=CN(C4=O)C
In short: (§1)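 K562 cells at 2×10^6 cells/mL were treated for 30 min with 10 μM compound, and aliquots were heated for 3 min over 48°C-58°C before pooling. Extraction used PBS with 0.5% NP-40 at 4°C, and soluble protein was the supernatant after 21,000xg for 90 min, measured by TMTpro 16plex LC-MS/MS with channel sums equalised. Thermal stability values, relative to control samples and from duplicates, are log2 fold changes.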

By UniProt entry, the sequences of proteins in these tests, tags left out. Where a name states a change or a piece, a line headed by the entry shows the natural chain unless it says otherwise.
UniProt Q96SZ6: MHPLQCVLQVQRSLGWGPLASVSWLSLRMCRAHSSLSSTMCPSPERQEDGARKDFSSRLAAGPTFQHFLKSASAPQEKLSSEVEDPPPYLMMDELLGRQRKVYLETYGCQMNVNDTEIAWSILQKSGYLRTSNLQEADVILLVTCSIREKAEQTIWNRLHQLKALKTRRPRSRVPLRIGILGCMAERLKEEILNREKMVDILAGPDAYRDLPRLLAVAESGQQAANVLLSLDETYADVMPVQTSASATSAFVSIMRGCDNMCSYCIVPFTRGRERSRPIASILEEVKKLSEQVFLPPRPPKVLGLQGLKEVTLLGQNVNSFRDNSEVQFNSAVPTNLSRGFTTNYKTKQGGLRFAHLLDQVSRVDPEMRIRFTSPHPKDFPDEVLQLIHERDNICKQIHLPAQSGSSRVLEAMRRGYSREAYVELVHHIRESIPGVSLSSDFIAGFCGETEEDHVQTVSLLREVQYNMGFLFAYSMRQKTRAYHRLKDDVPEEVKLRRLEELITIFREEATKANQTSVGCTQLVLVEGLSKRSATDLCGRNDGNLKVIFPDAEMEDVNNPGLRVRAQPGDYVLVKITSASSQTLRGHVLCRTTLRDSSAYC
UniProt Q9BV73: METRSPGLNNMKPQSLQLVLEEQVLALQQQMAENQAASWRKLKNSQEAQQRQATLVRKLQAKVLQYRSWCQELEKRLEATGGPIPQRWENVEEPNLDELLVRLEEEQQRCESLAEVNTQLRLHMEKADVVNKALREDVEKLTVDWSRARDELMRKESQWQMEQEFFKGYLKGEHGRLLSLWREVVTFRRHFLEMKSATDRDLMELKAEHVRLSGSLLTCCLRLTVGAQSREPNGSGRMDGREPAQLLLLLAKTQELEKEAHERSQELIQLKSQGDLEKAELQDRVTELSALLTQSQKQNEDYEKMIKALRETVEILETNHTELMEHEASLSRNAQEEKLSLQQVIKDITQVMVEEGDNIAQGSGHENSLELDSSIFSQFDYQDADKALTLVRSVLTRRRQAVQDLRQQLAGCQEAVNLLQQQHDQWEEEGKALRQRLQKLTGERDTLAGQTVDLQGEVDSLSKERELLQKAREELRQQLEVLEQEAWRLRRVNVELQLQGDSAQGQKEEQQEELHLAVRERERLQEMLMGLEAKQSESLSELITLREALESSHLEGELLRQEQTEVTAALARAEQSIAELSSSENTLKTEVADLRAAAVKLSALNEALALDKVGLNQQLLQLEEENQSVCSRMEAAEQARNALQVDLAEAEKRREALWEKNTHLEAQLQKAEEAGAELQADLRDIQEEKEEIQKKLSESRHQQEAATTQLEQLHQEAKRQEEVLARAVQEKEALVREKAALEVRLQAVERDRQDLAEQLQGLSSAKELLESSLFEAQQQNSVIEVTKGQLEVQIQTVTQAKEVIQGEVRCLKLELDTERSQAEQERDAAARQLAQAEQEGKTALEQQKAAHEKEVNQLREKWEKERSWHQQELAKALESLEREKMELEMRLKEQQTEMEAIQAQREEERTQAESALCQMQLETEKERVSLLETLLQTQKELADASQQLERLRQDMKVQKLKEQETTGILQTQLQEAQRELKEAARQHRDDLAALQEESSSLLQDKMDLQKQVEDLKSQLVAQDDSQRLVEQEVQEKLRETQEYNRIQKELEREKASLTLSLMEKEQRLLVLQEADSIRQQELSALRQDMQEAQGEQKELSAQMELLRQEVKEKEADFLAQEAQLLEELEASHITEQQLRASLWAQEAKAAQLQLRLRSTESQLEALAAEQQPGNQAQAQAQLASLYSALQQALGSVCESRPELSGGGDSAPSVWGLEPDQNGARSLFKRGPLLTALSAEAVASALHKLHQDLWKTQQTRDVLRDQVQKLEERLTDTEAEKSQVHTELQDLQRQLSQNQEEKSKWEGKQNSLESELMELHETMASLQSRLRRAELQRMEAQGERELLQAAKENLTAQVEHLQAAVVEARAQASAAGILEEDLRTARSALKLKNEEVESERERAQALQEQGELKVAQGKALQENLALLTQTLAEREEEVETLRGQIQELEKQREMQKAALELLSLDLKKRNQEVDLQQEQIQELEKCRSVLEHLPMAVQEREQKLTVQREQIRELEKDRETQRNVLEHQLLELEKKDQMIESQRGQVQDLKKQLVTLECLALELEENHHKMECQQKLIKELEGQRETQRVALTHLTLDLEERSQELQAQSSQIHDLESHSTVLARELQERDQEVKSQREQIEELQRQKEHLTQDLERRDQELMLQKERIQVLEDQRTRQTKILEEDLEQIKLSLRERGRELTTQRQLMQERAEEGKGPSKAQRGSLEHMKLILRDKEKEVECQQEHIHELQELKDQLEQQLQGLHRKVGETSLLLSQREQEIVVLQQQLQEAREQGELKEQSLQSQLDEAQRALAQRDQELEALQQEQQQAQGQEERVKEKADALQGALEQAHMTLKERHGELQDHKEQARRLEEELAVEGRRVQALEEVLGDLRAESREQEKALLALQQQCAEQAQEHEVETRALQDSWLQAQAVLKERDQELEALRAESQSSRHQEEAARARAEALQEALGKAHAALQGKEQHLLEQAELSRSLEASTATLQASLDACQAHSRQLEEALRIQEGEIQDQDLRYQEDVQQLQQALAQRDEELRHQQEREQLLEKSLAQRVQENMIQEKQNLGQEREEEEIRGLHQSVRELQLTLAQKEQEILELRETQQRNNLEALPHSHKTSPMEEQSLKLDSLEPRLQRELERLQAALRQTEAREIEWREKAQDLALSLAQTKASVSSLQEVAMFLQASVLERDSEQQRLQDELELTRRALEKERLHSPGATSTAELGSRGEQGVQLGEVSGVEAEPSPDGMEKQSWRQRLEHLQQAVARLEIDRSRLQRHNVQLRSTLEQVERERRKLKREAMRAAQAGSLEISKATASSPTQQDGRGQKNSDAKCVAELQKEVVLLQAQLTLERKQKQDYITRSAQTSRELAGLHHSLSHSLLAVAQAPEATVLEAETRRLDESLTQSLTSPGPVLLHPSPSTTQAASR
UniProt Q14004, whole entry, looked up: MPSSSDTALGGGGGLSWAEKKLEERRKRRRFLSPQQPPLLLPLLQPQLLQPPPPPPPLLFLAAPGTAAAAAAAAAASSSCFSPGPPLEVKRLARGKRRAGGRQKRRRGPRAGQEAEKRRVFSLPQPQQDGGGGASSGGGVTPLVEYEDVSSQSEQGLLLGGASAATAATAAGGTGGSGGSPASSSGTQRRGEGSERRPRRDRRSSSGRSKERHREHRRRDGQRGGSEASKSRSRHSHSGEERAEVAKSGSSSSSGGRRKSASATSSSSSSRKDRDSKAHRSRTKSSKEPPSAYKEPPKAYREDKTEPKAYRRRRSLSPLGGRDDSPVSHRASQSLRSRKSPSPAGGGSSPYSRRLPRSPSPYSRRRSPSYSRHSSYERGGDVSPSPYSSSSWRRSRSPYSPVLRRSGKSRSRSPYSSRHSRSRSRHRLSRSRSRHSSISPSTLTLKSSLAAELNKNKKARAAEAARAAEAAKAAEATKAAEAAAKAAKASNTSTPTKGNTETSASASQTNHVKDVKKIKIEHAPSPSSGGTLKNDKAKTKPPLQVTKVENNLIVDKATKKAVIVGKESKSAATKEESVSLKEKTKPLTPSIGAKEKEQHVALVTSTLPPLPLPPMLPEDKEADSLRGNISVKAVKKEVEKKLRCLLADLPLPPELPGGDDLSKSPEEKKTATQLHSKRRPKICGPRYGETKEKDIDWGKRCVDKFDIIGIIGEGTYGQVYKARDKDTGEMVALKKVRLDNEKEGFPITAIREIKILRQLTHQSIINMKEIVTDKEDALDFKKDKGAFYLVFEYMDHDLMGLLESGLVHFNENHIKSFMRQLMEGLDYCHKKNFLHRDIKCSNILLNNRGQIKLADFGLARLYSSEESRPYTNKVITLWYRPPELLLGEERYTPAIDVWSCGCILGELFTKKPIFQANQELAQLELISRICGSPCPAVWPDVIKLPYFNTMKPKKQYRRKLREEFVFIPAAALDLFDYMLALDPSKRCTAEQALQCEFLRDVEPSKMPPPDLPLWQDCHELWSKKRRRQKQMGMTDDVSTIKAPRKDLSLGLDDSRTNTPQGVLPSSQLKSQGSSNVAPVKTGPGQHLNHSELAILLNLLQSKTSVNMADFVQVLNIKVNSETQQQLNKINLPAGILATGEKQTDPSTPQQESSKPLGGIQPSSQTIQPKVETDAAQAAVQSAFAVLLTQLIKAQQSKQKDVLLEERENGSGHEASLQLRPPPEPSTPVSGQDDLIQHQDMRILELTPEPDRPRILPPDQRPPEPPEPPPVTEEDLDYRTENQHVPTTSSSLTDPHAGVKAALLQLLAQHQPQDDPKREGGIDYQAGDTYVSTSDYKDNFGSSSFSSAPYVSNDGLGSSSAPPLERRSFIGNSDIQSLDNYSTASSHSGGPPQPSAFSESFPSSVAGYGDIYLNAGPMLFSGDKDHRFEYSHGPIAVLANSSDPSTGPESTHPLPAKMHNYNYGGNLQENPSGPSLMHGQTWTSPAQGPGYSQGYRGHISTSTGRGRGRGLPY
UniProt Q9H3R5: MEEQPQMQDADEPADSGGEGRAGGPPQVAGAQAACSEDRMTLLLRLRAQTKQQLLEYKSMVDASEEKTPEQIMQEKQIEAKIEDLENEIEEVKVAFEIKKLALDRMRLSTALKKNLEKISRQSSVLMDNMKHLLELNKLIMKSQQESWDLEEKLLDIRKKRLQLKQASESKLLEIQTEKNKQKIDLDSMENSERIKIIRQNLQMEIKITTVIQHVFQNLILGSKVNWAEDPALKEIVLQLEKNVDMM
UniProt P21127: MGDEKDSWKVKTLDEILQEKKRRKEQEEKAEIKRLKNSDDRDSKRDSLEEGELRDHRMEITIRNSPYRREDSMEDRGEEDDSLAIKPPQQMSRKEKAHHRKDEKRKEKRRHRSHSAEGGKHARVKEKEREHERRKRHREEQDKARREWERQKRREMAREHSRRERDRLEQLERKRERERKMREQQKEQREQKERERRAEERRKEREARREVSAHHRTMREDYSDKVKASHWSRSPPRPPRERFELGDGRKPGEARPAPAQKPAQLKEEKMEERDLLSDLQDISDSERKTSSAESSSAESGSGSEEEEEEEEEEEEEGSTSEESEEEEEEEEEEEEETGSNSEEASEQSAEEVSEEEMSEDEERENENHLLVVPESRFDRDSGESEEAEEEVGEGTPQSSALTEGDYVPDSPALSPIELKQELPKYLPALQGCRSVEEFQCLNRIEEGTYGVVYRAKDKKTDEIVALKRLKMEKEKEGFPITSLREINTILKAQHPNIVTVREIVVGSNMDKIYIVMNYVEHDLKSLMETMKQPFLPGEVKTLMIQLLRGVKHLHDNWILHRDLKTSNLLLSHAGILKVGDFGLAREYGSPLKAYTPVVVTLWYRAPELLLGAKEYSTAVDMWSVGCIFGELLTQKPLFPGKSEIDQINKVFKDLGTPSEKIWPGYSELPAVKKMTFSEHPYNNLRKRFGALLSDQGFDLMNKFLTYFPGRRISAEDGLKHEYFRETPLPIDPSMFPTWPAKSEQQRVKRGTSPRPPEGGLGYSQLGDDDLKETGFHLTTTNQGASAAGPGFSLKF
UniProt Q96JB5: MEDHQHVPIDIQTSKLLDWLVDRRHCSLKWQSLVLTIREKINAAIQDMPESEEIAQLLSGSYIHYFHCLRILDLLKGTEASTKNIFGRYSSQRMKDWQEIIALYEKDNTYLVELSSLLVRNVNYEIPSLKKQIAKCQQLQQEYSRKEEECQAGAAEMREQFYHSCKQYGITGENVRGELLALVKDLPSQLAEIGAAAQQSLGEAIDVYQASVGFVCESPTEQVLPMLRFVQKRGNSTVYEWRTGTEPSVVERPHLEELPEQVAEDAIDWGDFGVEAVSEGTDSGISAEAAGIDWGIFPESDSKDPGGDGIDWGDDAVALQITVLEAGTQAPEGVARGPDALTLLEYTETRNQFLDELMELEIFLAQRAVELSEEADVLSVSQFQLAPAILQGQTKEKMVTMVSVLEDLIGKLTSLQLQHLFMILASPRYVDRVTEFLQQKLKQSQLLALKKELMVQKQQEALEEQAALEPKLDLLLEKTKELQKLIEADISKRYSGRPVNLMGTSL
UniProt P50750, whole entry, looked up: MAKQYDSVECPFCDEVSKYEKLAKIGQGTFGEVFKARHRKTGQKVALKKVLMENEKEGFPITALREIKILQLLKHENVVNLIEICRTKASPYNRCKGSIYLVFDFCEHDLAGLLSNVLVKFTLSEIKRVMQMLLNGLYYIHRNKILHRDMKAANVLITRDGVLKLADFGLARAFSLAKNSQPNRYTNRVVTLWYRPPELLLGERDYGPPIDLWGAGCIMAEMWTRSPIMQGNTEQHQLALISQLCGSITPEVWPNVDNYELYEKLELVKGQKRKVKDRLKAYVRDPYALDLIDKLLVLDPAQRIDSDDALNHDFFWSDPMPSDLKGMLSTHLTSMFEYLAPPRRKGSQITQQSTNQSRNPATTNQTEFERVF

[2] = compound: CC1=C(C=C(C=C1)NC(=O)C2=CC(=CC=C2)N(C)C)NC(=O)C3=CC=C(C=C3)O
In short: as §1

[3] = compound: CC1=CC=C(C=C1)SC2=C3C=C(SC3=CN=C2)C(=O)N
In short: as §1

[4] = compound: CC1=NC(=CC=C1)C2=C(N=C(N2)C(C)(C)C)C3=CC4=NC=CN=C4C=C3
In short: as §1

Nexturastat A = compound: CCCCN(Cc1ccc(C(=O)NO)cc1)C(=O)Nc1ccccc1 [Nexturastat A]
In short: as §1

vemurafenib = compound: CCCS(=O)(=O)Nc1ccc(F)c(C(=O)c2c[nH]c3ncc(-c4ccc(Cl)cc4)cc23)c1F [vemurafenib]
In short: as §1

[5] = compound: CCCS(=O)(=O)Nc1ccc(F)c(C(=O)c2c[nH]c3ncc(Cl)cc23)c1F
In short: as §1

[6] = compound: CCCc1cc(C)[nH]c(=O)c1CNC(=O)c1cc(-c2ccnc(N3CCN(C)CC3)c2)cc2c1cnn2C(C)C
In short: as §1

givinostat = compound: CCN(CC)Cc1ccc2cc(COC(=O)Nc3ccc(C(=O)NO)cc3)ccc2c1 [givinostat]
In short: as §1

barasertib = compound: CCN(CCCOc1ccc2c(Nc3cc(CC(=O)Nc4cccc(F)c4)[nH]n3)ncnc2c1)CCOP(=O)(O)O [barasertib]
In short: as §1

[7] = compound: CC[C@@H]1C(=O)N(C)c2cnc(Nc3ccc(C(=O)NC4CCN(C)CC4)cc3OC)nc2N1C1CCCC1
In short: as §1

volasertib = compound: CC[C@@H]1C(=O)N(C)c2cnc(Nc3ccc(C(=O)N[C@H]4CC[C@H](N5CCN(CC6CC6)CC5)CC4)cc3OC)nc2N1C(C)C [volasertib]
In short: as §1

[8] = compound: CC[C@H](C)N1C=C(C2=C(C=C(C=C21)C3=CN=C(C=C3)N4CCNCC4)C(=O)NCC5=C(C=C(NC5=O)C)C)C
In short: as §1

epoxomicin = compound: CC[C@H](C)[C@@H](C(=O)N[C@@H]([C@@H](C)O)C(=O)N[C@@H](CC(C)C)C(=O)[C@]1(CO1)C)NC(=O)[C@H]([C@@H](C)CC)N(C)C(=O)C [epoxomicin]
In short: as §1

[9] = compound: CCn1cc(-c2ccnc3[nH]c(-c4cccc(CN(C)C)c4)cc23)c(-c2ccc(NC(=O)N(C)C)cc2)n1
In short: as §1

[10] = compound: CN(C)CC(=O)Nc1ccc2[nH]c(=O)c3ccccc3c2c1
In short: as §1

[11] = compound: CN1C2=C(C3=C1C(=O)N(N=C3)CC4=CC(=CC=C4)N)SC(=C2)S(=O)C
In short: as §1

[12] = compound: CN1CCC(CNc2ccc3ncc(-c4cccc(OC(F)(F)F)c4)n3n2)CC1
In short: as §1

[13] = compound: CCn1c(C(=O)N(C2CC2)C2CC2)cc2c3c(ncn3C)c(Nc3cc(C)n(C)n3)nc21
In short: as §1

rosiglitazone = compound: CN(CCOC1=CC=C(C=C1)C[C@H]2C(=O)NC(=O)S2)C3=CC=CC=N3 (racemic) [rosiglitazone]
In short: as §1

Target | log2 fold change [1] | log2 fold change [2] | log2 fold change [3] | log2 fold change [4] | log2 fold change (Nexturastat A) | log2 fold change (vemurafenib) | log2 fold change [5] | log2 fold change [6] | log2 fold change (givinostat) | log2 fold change (barasertib) | log2 fold change [7] | log2 fold change (volasertib) | log2 fold change [8] | log2 fold change (epoxomicin) | log2 fold change [9] | log2 fold change [10] | log2 fold change [11] | log2 fold change [12] | log2 fold change [13] | log2 fold change (rosiglitazone)
CDK5RAP1 (UniProt Q96SZ6) | inactive: 0.014 | inactive: -0.04 | inactive: 0.002 | inactive: 0.05 | inactive: -0.065 | inactive: -0.007 | inactive: -0.035 | inactive: 0.066 | inactive: -0.166 | inactive: -0.005 | inactive: -0.119 | inactive: -0.064 | inactive: 0.071 | inactive: 0.033 | inactive: -0.086 | inactive: -0.006 | inactive: -0.074 | active: -0.254 | – | –
CDK8 (UniProt P49336) | inactive: 0.002 | inactive: -0.005 | inactive: 0.322 | inactive: 0.064 | inactive: -0.125 | inactive: 0.041 | inactive: 0.044 | inactive: -0.081 | inactive: 0.02 | inactive: -0.343 | inactive: 0.096 | inactive: -0.039 | – | inactive: -0.098 | inactive: -0.236 | inactive: -0.044 | inactive: -0.025 | inactive: 0.356 | – | –
CEP250 (UniProt Q9BV73) | inactive: 0.094 | inactive: -0.008 | inactive: 0.069 | inactive: -0.089 | inactive: 0.122 | inactive: 0 | inactive: 0.037 | inactive: -0.214 | inactive: 0.066 | inactive: -0.024 | inactive: 0.139 | inactive: 0.01 | inactive: -0.128 | inactive: -0.138 | – | inactive: 0.078 | inactive: 0.028 | – | inactive: -0.163 | inactive: 0.122
CDK13 (UniProt Q14004) | inactive: 0.045 | inactive: 0.027 | inactive: -0.047 | inactive: 0.056 | inactive: -0.212 | inactive: -0.056 | inactive: -0.037 | inactive: -0.011 | inactive: -0.021 | inactive: -0.029 | inactive: 0.025 | inactive: 0.09 | inactive: 0.034 | inactive: -0.032 | inactive: 0.018 | inactive: 0.004 | inactive: 0.233 | inactive: -0.047 | – | –
CENPH (UniProt Q9H3R5) | inactive: -0.072 | inactive: 0.04 | inactive: 0.081 | inactive: 0.052 | inactive: 0.142 | inactive: 0.115 | inactive: -0.012 | inactive: 0.137 | inactive: 0.03 | inactive: -0.031 | inactive: -0.245 | inactive: -0.202 | inactive: 0.001 | inactive: 0.102 | – | inactive: -0.175 | inactive: 0.184 | – | inactive: -0.045 | inactive: 0.093
CHCHD1 (UniProt Q96BP2) | inactive: -0.02 | inactive: -0.119 | inactive: 0.279 | inactive: 0.008 | inactive: 0.141 | inactive: -0.044 | inactive: 0.024 | inactive: -0.747 | inactive: 0.013 | inactive: -0.105 | inactive: -0.054 | inactive: -0.32 | inactive: -0.001 | inactive: -0.026 | inactive: -0.009 | inactive: 0.02 | inactive: 0.033 | inactive: -0.191 | – | –
CDK11B (UniProt P21127) | inactive: -0.079 | inactive: 0.214 | inactive: -0.109 | inactive: 0.071 | inactive: 0.038 | inactive: 0.029 | inactive: -0.064 | inactive: -0.063 | inactive: 0.114 | inactive: 0.028 | inactive: 0.087 | inactive: 0.047 | inactive: 0.028 | inactive: -0.072 | inactive: -0.01 | inactive: -0.107 | inactive: 0.005 | inactive: 0.094 | – | –
CHEK1 (UniProt O14757) | inactive: -0.023 | inactive: -0.013 | inactive: 0.05 | inactive: 0.037 | inactive: -0.048 | inactive: 0.017 | inactive: 0 | inactive: -0.022 | inactive: 0.029 | inactive: 0.033 | inactive: -0.137 | active: -0.274 | inactive: 0.005 | inactive: 0.055 | inactive: -0.101 | inactive: 0.003 | inactive: -0.029 | inactive: -0.159 | – | –
CDC42BPA isoform 6 (UniProt Q5VT25) | inactive: 0.151 | inactive: -0.079 | inactive: 0.01 | inactive: -0.015 | inactive: 0.123 | inactive: 0.004 | inactive: 0.141 | inactive: -0.013 | inactive: 0.051 | inactive: 0.04 | inactive: -0.021 | active: -0.86 | inactive: 0.053 | inactive: 0.001 | inactive: 0 | inactive: 0.042 | inactive: 0.078 | inactive: -0.359 | – | –
CHMP4B (UniProt Q9H444) | inactive: 0.181 | inactive: 0.008 | inactive: -0.073 | inactive: 0.007 | inactive: -0.04 | inactive: -0.036 | inactive: -0.126 | inactive: -0.02 | inactive: -0.061 | inactive: 0.001 | inactive: -0.05 | inactive: 0.062 | inactive: -0.044 | inactive: -0.008 | inactive: -0.065 | inactive: -0.053 | inactive: -0.057 | inactive: -0.033 | – | –
CDK5RAP3 isoform 4 (UniProt Q96JB5) | inactive: 0.018 | inactive: -0.035 | inactive: 0.008 | inactive: 0.015 | inactive: 0.051 | inactive: 0.044 | inactive: 0.077 | inactive: -0.015 | inactive: 0.109 | inactive: 0.029 | inactive: -0.056 | active: -0.296 | inactive: 0 | inactive: 0.021 | inactive: -0.007 | inactive: 0.033 | inactive: -0.024 | inactive: -0.002 | – | –
CHAMP1 (UniProt Q96JM3) | inactive: -0.003 | inactive: -0.018 | inactive: 0.005 | inactive: -0.012 | inactive: 0.011 | inactive: -0.01 | inactive: -0.011 | inactive: -0.003 | inactive: 0.032 | inactive: 0.027 | inactive: -0.035 | active: -0.357 | inactive: 0.181 | inactive: 0.016 | inactive: -0.095 | inactive: 0.014 | inactive: 0.038 | inactive: -0.302 | – | –
CHERP (UniProt Q8IWX8) | inactive: -0.042 | inactive: -0.088 | inactive: -0.053 | inactive: 0.003 | inactive: -0.006 | inactive: 0.018 | inactive: 0.127 | inactive: 0.075 | inactive: 0.107 | inactive: 0.055 | inactive: -0.162 | active: -0.888 | inactive: -0.014 | inactive: 0.064 | inactive: 0.022 | inactive: 0.041 | inactive: 0.102 | inactive: -0.05 | – | –
CHCHD4 isoform 2 (UniProt Q8N4Q1) | inactive: 0.373 | inactive: 0.001 | inactive: 0.157 | inactive: -0.035 | inactive: -0.026 | inactive: -0.015 | inactive: 0.412 | inactive: -0.063 | inactive: 0.029 | inactive: -0.024 | inactive: -0.009 | inactive: -0.125 | inactive: -0.096 | inactive: -0.186 | inactive: 0.231 | inactive: -0.023 | inactive: -0.107 | active: 0.795 | – | –
CDK9 isoform 2 (UniProt P50750) | inactive: 0.053 | inactive: -0.067 | inactive: -0.001 | inactive: -0.084 | inactive: 0.155 | inactive: -0.052 | inactive: 0.024 | inactive: 0.036 | inactive: 0.014 | inactive: 0.002 | inactive: -0.01 | inactive: 0.078 | inactive: 0.064 | inactive: -0.06 | inactive: -0.092 | inactive: -0.042 | inactive: 0.178 | inactive: 0.205 | – | –
CDK12 (UniProt Q9NYV4) | inactive: 0.049 | inactive: -0.001 | inactive: -0.079 | inactive: -0.077 | inactive: 0.278 | inactive: -0.047 | inactive: -0.002 | inactive: 0.104 | inactive: 0.026 | inactive: -0.083 | inactive: 0.147 | inactive: 0.237 | inactive: 0.016 | inactive: -0.363 | inactive: 0.041 | inactive: -0.027 | inactive: 0.392 | inactive: -0.102 | – | –

Fetched one by one from above, two records:
Target | log2 fold change [1] | log2 fold change [2] | log2 fold change [3] | log2 fold change [4] | log2 fold change (Nexturastat A) | log2 fold change (vemurafenib) | log2 fold change [5] | log2 fold change [6] | log2 fold change (givinostat) | log2 fold change (barasertib) | log2 fold change [7] | log2 fold change (volasertib) | log2 fold change [8] | log2 fold change (epoxomicin) | log2 fold change [9] | log2 fold change [10] | log2 fold change [11] | log2 fold change [12] | log2 fold change [13] | log2 fold change (rosiglitazone)
CHMP4B (UniProt Q9H444) | inactive: 0.181 | inactive: 0.008 | inactive: -0.073 | inactive: 0.007 | inactive: -0.04 | inactive: -0.036 | inactive: -0.126 | inactive: -0.02 | inactive: -0.061 | inactive: 0.001 | inactive: -0.05 | inactive: 0.062 | inactive: -0.044 | inactive: -0.008 | inactive: -0.065 | inactive: -0.053 | inactive: -0.057 | inactive: -0.033 | – | –
CHCHD1 (UniProt Q96BP2) | inactive: -0.02 | inactive: -0.119 | inactive: 0.279 | inactive: 0.008 | inactive: 0.141 | inactive: -0.044 | inactive: 0.024 | inactive: -0.747 | inactive: 0.013 | inactive: -0.105 | inactive: -0.054 | inactive: -0.32 | inactive: -0.001 | inactive: -0.026 | inactive: -0.009 | inactive: 0.02 | inactive: 0.033 | inactive: -0.191 | – | –
